Some of the results follow. Many values rest on one well or one pass, so single values are uncertain.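 Cells were imaged in 1,536-well plates, and nuclei stained with an antibody against cleaved PARP were counted against all DNA-stained nuclei to give the apoptosis fraction. Screening doses were chosen to leave most cells alive, and resting and induced cleaved-PARP levels differ strongly between cell lines.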
Experiments:
Test in all cases: cleaved PARP positive nuclei fraction relative to DMSO control; melanoma cells; higher = more apoptosis
Conditions in all cases: library dose: low library concentration; 72 h
[1] = tested on: MZ2-MEL
[2] = tested on: MeWo
[3] = tested on: RPMI7951
[4] = tested on: RVH-421
[5] = tested on: SkMel28
[6] = tested on: SkMel30
[7] = tested on: UACC62
[8] = tested on: SkMel2
[9] = tested on: SkMel5
[10] = tested on: UACC257

SMILES	cleaved PARP positive nuclei fraction [1] [%]	cleaved PARP positive nuclei fraction [2] [%]	cleaved PARP positive nuclei fraction [3] [%]	cleaved PARP positive nuclei fraction [4] [%]	cleaved PARP positive nuclei fraction [5] [%]	cleaved PARP positive nuclei fraction [6] [%]	cleaved PARP positive nuclei fraction [7] [%]	cleaved PARP positive nuclei fraction [8] [%]	cleaved PARP positive nuclei fraction [9] [%]	cleaved PARP positive nuclei fraction [10] [%]
C[C@]12O[C@H](C[C@]1(O)CO)n1c3ccccc3c3c4c(c5c6ccccc6n2c5c31)CNC4=O [Lestaurtinib] + Nc1ncn([C@H]2C[C@H](O)[C@@H](CO)O2)c(=O)n1 [decitabine] (first compound 0.004 µM, partner dose 0.1 µM)	143	90.2	57	53.7	158	94.8	313			
CC(C)C[C@H](NC(=O)[C@H](Cc1ccccc1)NC(=O)c1cnccn1)B(O)O [Bortezomib] + Cc1cc(SCc2sc(-c3ccc(C(F)(F)F)c(F)c3)nc2C)ccc1OCC(=O)O [GW0742] (first compound 0.001 µM, partner dose 2 µM)		100	53.7	109	39.2	29.6	144	102	78.9	316
Cc1cc(Nc2cc(N3CCN(C)CC3)nc(Sc3ccc(NC(=O)C4CC4)cc3)n2)n[nH]1 [Tozasertib] + Cc1cc(SCc2sc(-c3ccc(C(F)(F)F)c(F)c3)nc2C)ccc1OCC(=O)O [GW0742] (first compound 0.006 µM, partner dose 2 µM)		44	130	57.5	189	87.5	126		144	93.3
Cc1nc(Nc2ncc(C(=O)Nc3c(C)cccc3Cl)s2)cc(N2CCN(CCO)CC2)n1 [dasatanib] + O=C(Oc1ccc([N+](=O)[O-])cc1)N1CCC(C(O)(c2ccc3c(c2)OCO3)c2ccc3c(c2)OCO3)CC1 [JZL184] (first compound 0.004 µM, partner dose 1 µM)		61.2	108	102	121	58	190		65.9	165
O=C(Nc1cccc(Cl)c1)Nc1ncc(CCNc2ncnc3ccsc23)s1 + C/C(O)=C(\C#N)C(=O)Nc1cc(Br)ccc1Br [LFM-A13] (first compound 0.0008 µM, partner dose 2 µM)		113	139	108	166	242	47.1		126	82.7
Cn1cc(C2=C(c3cn(C4CCN(Cc5ccccn5)CC4)c4ccccc34)C(=O)NC2=O)c2ccccc21 [Enzastaurin] + Cc1cc([N+](=O)[O-])ccc1NS(=O)(=O)c1cc(Cl)ccc1Cl [FH535] (first compound 0.8 µM, partner dose 1 µM)		81.6	211	100	108	40.9	97.5		192	146
Cn1cc(C2=C(c3cn(C4CCN(Cc5ccccn5)CC4)c4ccccc34)C(=O)NC2=O)c2ccccc21 [Enzastaurin] + C[C@@H](Oc1cc(-c2cnn(C3CCNCC3)c2)cnc1N)c1c(Cl)ccc(F)c1Cl [Crizotinib] (first compound 0.8 µM, partner dose 0.2 µM)		94.2	109	132	41.4	41.6	56.7			
C[C@]12O[C@H](C[C@]1(O)CO)n1c3ccccc3c3c4c(c5c6ccccc6n2c5c31)CNC4=O [Lestaurtinib] + Cn1c(Nc2ccc(C(F)(F)F)cc2)nc2cc(Oc3ccnc(-c4ncc(C(F)(F)F)[nH]4)c3)ccc21 [CHIR265] (first compound 0.004 µM, partner dose 0.08 µM)		138	57.9	174	97.3	199	129			
Cn1c(=O)n(-c2ccc(C(C)(C)C#N)cc2)c2c3cc(-c4cnc5ccccc5c4)ccc3ncc21 + N.N.[Cl][Pt][Cl] [cisplatin] (first compound 0.004 µM, partner dose 1.6 µM)		65	103	113	191	51.4	150			
N.N.[Cl][Pt][Cl] [cisplatin] + NCC(=O)Nc1ccc(-n2nc(C(F)(F)F)cc2-c2ccc3c(ccc4ccccc43)c2)cc1 [OSU03012] (first compound 1.6 µM, partner dose 1 µM)		42.6	67.7	73.7	183	49.8	111		72.8	73.6
C[As](C)SC[C@H](NC(=O)CC[C@H](N)C(=O)O)C(=O)NCC(=O)O [Darinaparsin] + COc1cc(N2CCC(N3CCN(C)CC3)CC2)ccc1Nc1ncc(Cl)c(Nc2ccccc2S(=O)(=O)C(C)C)n1 [NVP-TAE684] (first compound 0.4 µM, partner dose 0.08 µM)		67.2	133	80.1	74.1	54.7	38.4		31.2	144
COCC[n+]1c2c(n(Cc3cnccn3)c1C)C(=O)c1ccccc1C2=O + O=C(Oc1ccc([N+](=O)[O-])cc1)N1CCC(C(O)(c2ccc3c(c2)OCO3)c2ccc3c(c2)OCO3)CC1 [JZL184] (first compound 0.0004 µM, partner dose 1 µM)		113	212	24.8	129	48.1	86.6		77	192
Cn1cc(C2=C(c3cn(C4CCN(Cc5ccccn5)CC4)c4ccccc34)C(=O)NC2=O)c2ccccc21 [Enzastaurin] + NC1(c2ccc(-c3nc4ccn5c(=O)[nH]nc5c4cc3-c3ccccc3)cc2)CCC1 [MK2206] (first compound 0.8 µM, partner dose 0.4 µM)		160	117	59.1	46.2	56.8	96.5			
Cn1cc(C2=C(c3cn(C4CCN(Cc5ccccn5)CC4)c4ccccc34)C(=O)NC2=O)c2ccccc21 [Enzastaurin] + CC(=O)O[C@@]12CO[C@@H]1C[C@H](O)[C@@]1(C)C(=O)[C@H](O)C3=C(C)[C@@H](OC(=O)[C@H](O)[C@@H](NC(=O)OC(C)(C)C)c4ccccc4)C[C@@](O)([C@@H](OC(=O)c4ccccc4)[C@H]21)C3(C)C [Docetaxel] (first compound 0.8 µM, partner dose 0.0001 µM)		611	232	84.6	167	349	337			
C[C@]12O[C@H](C[C@]1(O)CO)n1c3ccccc3c3c4c(c5c6ccccc6n2c5c31)CNC4=O [Lestaurtinib] + OCCn1cc(-c2cnc3nnn(Cc4ccc5ncccc5c4)c3n2)cn1 [PF04217903] (first compound 0.004 µM, partner dose 1 µM)		72.4	76.9	93	117	74.5	78.9		63.8	85.6
C[As](C)SC[C@H](NC(=O)CC[C@H](N)C(=O)O)C(=O)NCC(=O)O [Darinaparsin] + C/C(O)=C(\C#N)C(=O)Nc1cc(Br)ccc1Br [LFM-A13] (first compound 0.4 µM, partner dose 2 µM)		119	85.1	19.7	163	37.6	91.3		80.8	115
C#Cc1cccc(Nc2ncnc3cc(OCCOC)c(OCCOC)cc23)c1 [erlotinib] + Cc1cc(SCc2sc(-c3ccc(C(F)(F)F)c(F)c3)nc2C)ccc1OCC(=O)O [GW0742] (first compound 0.8 µM, partner dose 2 µM)		107	87.5	102	202	25.5	155		57.6	89.8
C[As](C)SC[C@H](NC(=O)CC[C@H](N)C(=O)O)C(=O)NCC(=O)O [Darinaparsin] + Cn1cc(/C=C2\C(=O)Nc3cccnc32)c2ccccc21 [GW441756] (first compound 0.4 µM, partner dose 0.4 µM)		187	166	94.8	114	72.9	162		145	209
C[C@]12O[C@H](C[C@]1(O)CO)n1c3ccccc3c3c4c(c5c6ccccc6n2c5c31)CNC4=O [Lestaurtinib] + C[As](C)SC[C@H](NC(=O)CC[C@H](N)C(=O)O)C(=O)NCC(=O)O [Darinaparsin] (first compound 0.004 µM, partner dose 0.4 µM)		22.4	152	49.9	144	23.5	147			
Cn1cc(C2=C(c3cn(C4CCN(Cc5ccccn5)CC4)c4ccccc34)C(=O)NC2=O)c2ccccc21 [Enzastaurin] + N.N.[Cl][Pt][Cl] [cisplatin] (first compound 0.8 µM, partner dose 1.6 µM)		57.6	153	118	74.2	70.5	175			
N.N.[Cl][Pt][Cl] [cisplatin] + CCN(CC)CCCCNc1ncc2cc(-c3cc(OC)cc(OC)c3)c(NC(=O)NC(C)(C)C)nc2n1 [PD173074] (first compound 1.6 µM, partner dose 0.1 µM)		35.3	133	150	215	30.3	97		72.6	54.7

Look-ups from the list.
Cn1cc(C2=C(c3cn(C4CCN(Cc5ccccn5)CC4)c4ccccc34)C(=O)NC2=O)c2ccccc21 [Enzastaurin] + Cc1cc([N+](=O)[O-])ccc1NS(=O)(=O)c1cc(Cl)ccc1Cl [FH535] (first compound 0.8 µM, partner dose 1 µM) | cleaved PARP positive nuclei fraction [6] [%]: 40.9
Cn1cc(C2=C(c3cn(C4CCN(Cc5ccccn5)CC4)c4ccccc34)C(=O)NC2=O)c2ccccc21 [Enzastaurin] + C[C@@H](Oc1cc(-c2cnn(C3CCNCC3)c2)cnc1N)c1c(Cl)ccc(F)c1Cl [Crizotinib] (first compound 0.8 µM, partner dose 0.2 µM) | cleaved PARP positive nuclei fraction [3] [%]: 109
